According to article PMC10912509:
Results are given in words; binding and its absence hold for the method and conditions named. Binding seen in cells or lysates may run through a third protein. A yes stands for co-enrichment or nearness to the bait. Other partners may have been found. Tags and fused reporters may be left off the sequences shown.

Amino acid sequences for entries named in this document (tags omitted).
UniProt O95782: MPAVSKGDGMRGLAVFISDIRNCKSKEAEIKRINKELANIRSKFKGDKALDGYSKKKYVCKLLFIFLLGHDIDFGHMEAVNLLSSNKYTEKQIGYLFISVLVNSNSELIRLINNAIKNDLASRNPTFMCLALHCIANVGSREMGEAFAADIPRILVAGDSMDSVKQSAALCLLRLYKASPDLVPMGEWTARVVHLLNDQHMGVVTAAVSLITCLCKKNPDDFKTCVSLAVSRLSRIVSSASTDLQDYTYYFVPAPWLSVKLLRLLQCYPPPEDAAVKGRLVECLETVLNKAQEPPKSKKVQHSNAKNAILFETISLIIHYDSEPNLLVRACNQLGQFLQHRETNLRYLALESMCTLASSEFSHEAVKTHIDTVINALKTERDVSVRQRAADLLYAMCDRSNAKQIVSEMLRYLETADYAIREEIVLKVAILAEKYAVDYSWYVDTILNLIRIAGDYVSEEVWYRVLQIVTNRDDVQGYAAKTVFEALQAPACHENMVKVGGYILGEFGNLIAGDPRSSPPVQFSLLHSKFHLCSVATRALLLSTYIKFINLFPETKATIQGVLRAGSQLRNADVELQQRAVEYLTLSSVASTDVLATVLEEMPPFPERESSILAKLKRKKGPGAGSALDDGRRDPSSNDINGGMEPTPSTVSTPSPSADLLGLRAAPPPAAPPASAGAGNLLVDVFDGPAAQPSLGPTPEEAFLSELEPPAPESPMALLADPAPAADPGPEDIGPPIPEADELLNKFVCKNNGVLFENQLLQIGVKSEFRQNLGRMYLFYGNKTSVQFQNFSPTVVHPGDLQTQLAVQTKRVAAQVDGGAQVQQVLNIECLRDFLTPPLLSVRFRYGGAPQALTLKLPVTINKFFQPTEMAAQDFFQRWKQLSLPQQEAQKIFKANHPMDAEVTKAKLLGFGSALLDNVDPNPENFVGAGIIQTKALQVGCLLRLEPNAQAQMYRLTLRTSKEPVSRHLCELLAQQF
UniProt Q14258: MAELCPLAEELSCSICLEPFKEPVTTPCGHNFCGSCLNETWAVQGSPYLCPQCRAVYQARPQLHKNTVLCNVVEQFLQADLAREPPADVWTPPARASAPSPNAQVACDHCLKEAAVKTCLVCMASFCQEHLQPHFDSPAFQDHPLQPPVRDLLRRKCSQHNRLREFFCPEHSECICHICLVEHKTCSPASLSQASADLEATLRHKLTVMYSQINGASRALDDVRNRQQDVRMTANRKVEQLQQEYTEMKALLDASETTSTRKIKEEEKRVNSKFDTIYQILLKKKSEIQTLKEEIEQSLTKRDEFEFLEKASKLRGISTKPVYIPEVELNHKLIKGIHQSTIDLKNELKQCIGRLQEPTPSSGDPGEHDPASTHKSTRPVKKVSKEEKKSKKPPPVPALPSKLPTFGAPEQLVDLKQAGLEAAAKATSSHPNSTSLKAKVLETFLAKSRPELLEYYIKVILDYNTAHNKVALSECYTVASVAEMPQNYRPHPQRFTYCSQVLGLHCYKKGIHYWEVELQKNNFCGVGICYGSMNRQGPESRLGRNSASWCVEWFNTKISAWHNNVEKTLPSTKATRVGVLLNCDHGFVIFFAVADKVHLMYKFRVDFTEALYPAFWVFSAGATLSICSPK

Target: T1, Flag-tagged ITPKB (inositol 1,4,5-triphosphate (IP3) kinase B), wild type (UniProt P27987)
T1 sequence: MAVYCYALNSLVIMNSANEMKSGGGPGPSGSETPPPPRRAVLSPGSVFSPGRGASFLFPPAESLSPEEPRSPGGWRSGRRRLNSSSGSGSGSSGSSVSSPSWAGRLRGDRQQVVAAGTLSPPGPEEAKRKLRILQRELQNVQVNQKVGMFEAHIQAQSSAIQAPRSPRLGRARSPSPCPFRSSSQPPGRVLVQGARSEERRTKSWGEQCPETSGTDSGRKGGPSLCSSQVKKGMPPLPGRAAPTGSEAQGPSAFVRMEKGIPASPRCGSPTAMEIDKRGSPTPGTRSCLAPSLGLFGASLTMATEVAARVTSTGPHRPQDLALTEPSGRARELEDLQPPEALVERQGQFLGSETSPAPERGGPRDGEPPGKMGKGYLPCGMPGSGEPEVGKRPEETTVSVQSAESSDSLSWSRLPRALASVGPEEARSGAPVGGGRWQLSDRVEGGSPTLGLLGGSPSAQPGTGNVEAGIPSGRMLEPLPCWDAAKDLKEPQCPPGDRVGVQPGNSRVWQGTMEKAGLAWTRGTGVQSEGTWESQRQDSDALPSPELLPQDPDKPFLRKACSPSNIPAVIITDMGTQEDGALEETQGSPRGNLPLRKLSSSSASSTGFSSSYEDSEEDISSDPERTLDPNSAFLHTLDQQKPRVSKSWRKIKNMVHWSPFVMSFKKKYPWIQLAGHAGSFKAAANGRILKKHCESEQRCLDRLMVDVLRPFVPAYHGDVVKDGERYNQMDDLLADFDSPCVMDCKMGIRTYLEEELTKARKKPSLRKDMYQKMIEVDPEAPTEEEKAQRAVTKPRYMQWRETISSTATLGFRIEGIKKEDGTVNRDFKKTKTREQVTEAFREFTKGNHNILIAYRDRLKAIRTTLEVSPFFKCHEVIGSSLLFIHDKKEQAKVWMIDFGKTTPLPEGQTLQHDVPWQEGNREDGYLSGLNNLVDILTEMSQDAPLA
Experiment: affinity purification with mass spectrometry; coimmunoprecipitation and mass spectrometry of ITPKB complexes from HEK293T and T98G-R cells overexpressing Flag-tagged ITPKB

Row | binding | Substance
1 | binds | AP2A1 (from UniProt O95782 1-977)
2 | binds | Trim25, endogenous (from UniProt Q14258 1-630) (enzyme)
